Test results reported in PMC7568605.
No constants are given. Whether binding was seen depends on the method and setting. In cells and extracts the contact can be indirect. Some results given as binding are weak or reduced against the parent protein; the word gives no strength.

Amino acid sequences for entries named in this document (tags omitted). Residues count along the entry.
UniProt O70174, residues 31-629: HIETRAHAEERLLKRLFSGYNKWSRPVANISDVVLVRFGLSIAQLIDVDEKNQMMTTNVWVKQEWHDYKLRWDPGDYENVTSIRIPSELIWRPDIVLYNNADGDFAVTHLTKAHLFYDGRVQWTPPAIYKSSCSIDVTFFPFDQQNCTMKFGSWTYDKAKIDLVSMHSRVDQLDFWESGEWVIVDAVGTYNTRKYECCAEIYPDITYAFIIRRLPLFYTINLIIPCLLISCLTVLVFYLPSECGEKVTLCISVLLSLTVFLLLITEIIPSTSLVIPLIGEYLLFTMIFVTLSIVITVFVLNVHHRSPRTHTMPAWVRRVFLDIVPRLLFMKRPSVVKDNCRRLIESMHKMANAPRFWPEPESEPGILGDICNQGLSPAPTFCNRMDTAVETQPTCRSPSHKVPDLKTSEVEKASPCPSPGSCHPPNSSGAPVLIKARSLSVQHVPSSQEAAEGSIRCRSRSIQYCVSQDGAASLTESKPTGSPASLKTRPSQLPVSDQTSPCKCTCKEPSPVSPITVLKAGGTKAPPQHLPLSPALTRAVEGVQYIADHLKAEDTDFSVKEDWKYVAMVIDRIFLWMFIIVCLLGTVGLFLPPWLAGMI

Molecular target: α6-GFP nAChR subunit (UniProt Q9R0W9)
Assay: FRET or BRET; NFRET (PixFRET ImageJ plug-in) between α6-GFP (excited at 488 nm) and α4-mCherry (561 nm) in 20 μm coronal brain slices (bregma -3.1 mm) of α4-mCherryα6-GFP mice, Leica SP5 confocal; bleedthrough controls from mice with α4-mCherry alone or α6-GFP alone; mice treated with saline or 0.5 mg/kg nicotine in CPP assays

In the case of “α4-mCherry nAChR subunit (from UniProt O70174 31-629) (receptor)”, the binding is reported as “binds”.
